# For at least one compound, name, drawing or mass did not settle the structure.
# Experiments:
# PI3K/AKT pathway = test: Treatments in disease models with inhibitors of the PI3K/AKT pathway
# Description: The PI3K/AKT pathway is activated in brains affected with PD and models thereof. Activated PI3K/AKT is exemplified by increases in PI3-Ps, including PI3,4,5P3 and PI3,4P2 that are required for the phosphorylation and activation of AKT phosphorylation at Thr308 and Ser 473. α-Syn is involved in activation of PI3K/AKT pathway. PI3K/AKT activation by α-Syn involves protein palmitoylation. […] Inhibitors of the PI3K/AKT pathway are useful to inhibit α-Syn′ toxicity. These may include Alpelisib and additional inhibitors of PI3K class I that act peripherally not crossing the blood brain barrier (BBB); or GDC-0084 and similar agents that can cross the BBB and act at the central nervous system. Or inhibitors of class II PI3K, for example, HY-151491, HY-151492 or HY-151490.α-Syn enhances PI3K activity by enhancing protein palmitoylation, including Ras palmitoylation that regulates PI3K activity. Class I and class II PI3Ks enzymes harbor a Ras binding domain and thus are affected by α-Syn. Class I and class II PI3Ks enzymes are activated by α-Syn and are targets for PD therapy. Inhibitors for class I and class II PI3Ks may be used for drug repurposing
# SH-SY5Y cells = test: PI4,5P2 levels by FACS in Tet-on inducible α-Syn SH-SY5Y cells; format: cell-based; settings: cells infected with shNIR2 to silence Nir2 expression
# Procedure: Analysis was performed as previously described with some modifications. Cells were suspended and washed in clear DMEM; followed by 20 minutes fixation in 2% (v/w) paraformaldehyde at 4° C.; and permeabilization in 0.2% saponin in 1% BSA (w/v) for 15 minutes at 4° C. Cells were then incubated with anti α-Syn antibody (MJFR1, 1:2,000) and anti PI4,5P2 antibody (1:200, see Table 2) for 90 minutes at 4° C. with gentle rolling; washed and probed with the respective secondary antibody for 30 minutes at room temperature. FACS analysis in SK-mel2 cells was performed 7-14 days following viral transduction. During this time effective α-Syn knockdown was confirmed using rt-PCR and Western blotting. HEK 293T cells were analyzed by FACS forty-eight hours from transfection. Analyses were performed using BD LSRFortessa Cell Analyzer, equipped with 5 lasers (355, 405, 488, 561 and 640 nm) and the FLOWJO, LLC software. Mock-GFP, Sj-1 or PIPKIγ expression were directly detected at 488 nm based on a GFP-tag. […] A total of 2,000-4,000 gated cells were counted in each experiment unless indicated differently.
# To test the mechanism through which α-Syn increases cellular PI4,5P2 levels, the inventors tested the potential involvement of Nir2-expression. […] 72 hours post DNA transfection, PI4,5P2 levels were determined by FACS. […] PI4,5P2 levels were determined by FACS following 3 days of incubation with doxycycline. […]
# HEK 293T cells = test: 568-Tf (transferrin) endocytosis with the rapamycin-inducible phosphatase; format: cell-based; settings: cells co-expressing Inp45p and WT α-Syn, rapamycin 500 nM, 7 minutes
# Procedure: FIGS. 15A-15E include fluorescent micrographs, a micrograph, and graphs showing that the enhancing effect of α-Syn on CME is PI4,5P2 dependent. (15A) HEK 293T cells, transfected to co-express the three plasmids: Lyn-FRB, FKBP-CFP-Inp54p and WT α-Syn. On day of experiment, cells were serum starved for 90 minutes and then incubated for 7 minutes with 568-Tf and rapamycin (500 nM) to induce the recruitment of the Inp45p phosphatase (P-ase) to the plasma membrane along with internalization of 568-Tf. Control cells were treated in parallel with DMSO (0.5% v/v). Cells were then acid-washed, fixed and immunoreacted with anti α-Syn ab (MJFR1; Green). Direct fluorescence for CFP (P-ase; Grey) and 568-Tf (Red). (15B) HEK 293T cells expressing Lyn-FRB and FKBP-CFP-Inp54p were treated either with rapamycin or DMSO as described in (15A), followed by immunoreaction with anti PI4,5P2 ab (Echelon). A quantification of PI4,5P2 signal is shown (n>9 cells per treatment; mean±SE; * P<0.01 t-test). (15C) Graph showing quantification of internalized 568-Tf signal in cells transfected and treated as in (15A). Cells transfected with a mock vector (white bars, squares) or α-Syn (black bars, circles). […] Protein samples were analyzed by a western blot, immunoreacted with anti-Nir2 ab (Abcam). […] Sister cultures were immunoreacted with anti PI4,5P2 ab and analyzed by FACS. […]
structure (smiles),measurement,setting,value
O=c1cc(N2CCOCC2)oc2c(-c3ccccc3)cccc12 [LY294002],aberrant activation of the PI3K/AKT pathway by α-Syn,PI3K/AKT pathway,reduce the aberrant activation of this pathway by α-Syn
C[C@H]1c2cccc(O)c2C(=O)C2=C(O)[C@]3(O)C(=O)C(C(N)=O)=C(O)[C@@H](N(C)C)[C@@H]3[C@@H](O)[C@@H]21 [doxycycline],"effect of doxycycline induced α-Syn-expression on PI4,5P2 signal",SH-SY5Y cells,abolished
CO[C@H]1C[C@@H]2CC[C@@H](C)[C@@](O)(O2)C(=O)C(=O)N2CCCC[C@H]2C(=O)O[C@H]([C@H](C)C[C@@H]2CC[C@@H](O)[C@H](OC)C2)CC(=O)[C@H](C)/C=C(\C)[C@@H](O)[C@@H](OC)C(=O)[C@H](C)C[C@H](C)/C=C/C=C/C=C/1C [rapamycin],α-Syn-stimulated CME (568-Tf internalization),HEK 293T cells,completely abolished
